Reference: PMC7162542

Key:
[1] = biological target: MDA5 middle helicase domain; test: co-IP; HEK293 cells (control or ZFYVE1-KO) transfected with the indicated tagged plasmids for 20 h; NP-40 lysis buffer (20 mM Tris-HCl pH 7.4-7.5, 150 mM NaCl, 1 mM EDTA, 1% NP-40); antibody and GammaBind G Plus-Sepharose, 4°C, 2 h; washes with 500 mM NaCl; immunoblot
[2] = biological target: MDA5 N-terminal tandem CARDs; test: as above

binding [1]: binds
binding [2]: binds
B1: ZFYVE1 (guanylate-binding protein and zinc-finger FYVE domain-containing protein), Flag- or HA-tagged (protein, UniProt Q9HBF4-1 1-777)
chain: MSAQTSPAEKGLNPGLMCQESYACSGTDEAIFECDECCSLQCLRCEEELHRQERLRNHERIRLKPGHVPYCDLCKGLSGHLPGVRQRAIVRCQTCKINLCLECQKRTHSGGNKRRHPVTVYNVSNLQESLEAEEMDEETKRKKMTEKVVSFLLVDENEEIQVTNEEDFIRKLDCKPDQHLKVVSIFGNTGDGKSHTLNHTFFYGREVFKTSPTQESCTVGVWAAYDPVHKVAVIDTEGLLGATVNLSQRTRLLLKVLAISDLVIYRTHADRLHNDLFKFLGDASEAYLKHFTKELKATTARCGLDVPLSTLGPAVIIFHETVHTQLLGSDHPSEVPEKLIQDRFRKLGRFPEAFSSIHYKGTRTYNPPTDFSGLRRALEQLLENNTTRSPRHPGVIFKALKALSDRFSGEIPDDQMAHSSFFPDEYFTCSSLCLSCGVGCKKSMNHGKEGVPHEAKSRCRYSHQYDNRVYTCKACYERGEEVSVVPKTSASTDSPWMGLAKYAWSGYVIECPNCGVVYRSRQYWFGNQDPVDTVVRTEIVHVWPGTDGFLKDNNNAAQRLLDGMNFMAQSVSELSLGPTKAVTSWLTDQIAPAYWRPNSQILSCNKCATSFKDNDTKHHCRACGEGFCDSCSSKTRPVPERGWGPAPVRVCDNCYEARNVQLAVTEAQVDDEGGTLIARKVGEAVQNTLGAVVTAIDIPLGLVKDAARPAYWVPDHEILHCHNCRKEFSIKLSKHHCRACGQGFCDECSHDRRAVPSRGWDHPVRVCFNCNKKPGDL

These are yes or no findings as the source states them, for the method shown. In cells and extracts the contact can be indirect. Binding calls can cover weak binding; strength is not graded here. Tags and fused reporters may be left off the sequences shown.
